# The supplement of paper PMC4604168 (melanoma cell lines)
# Some of the results follow. Many values rest on one well or one pass, so single values are uncertain.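 Imaging used 1,536-well plates; nuclei positive for cleaved PARP by antibody were divided by total DNA-stained nuclei to yield the apoptosis fraction. Doses for screening kept most cells viable, and cell lines differ markedly in resting and induced cleaved-PARP levels.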
# Test system: WM3619
# Experiment: cleaved PARP positive nuclei fraction relative to DMSO control; melanoma cells; higher = more apoptosis
# Conditions: library dose: low library concentration; 72 h
row,SMILES,cleaved PARP positive nuclei fraction [%]
1,"CC(C)(C)c1cnc(CSc2cnc(NC(=O)C3CCNCC3)s2)o1 + OCCn1cc(-c2cnc3nnn(Cc4ccc5ncccc5c4)c3n2)cn1 [PF04217903] (first compound 0.01 µM, partner dose 1 µM)",94
2,"Cc1cc(N2CCOCC2)cc2[nH]c(-c3c(NC[C@@H](O)c4cccc(Cl)c4)cc[nH]c3=O)nc12 + O=C(O)C(=O)Nc1sc2c(c1C(=O)O)CCNC2 [TCS401] (first compound 0.2 µM, partner dose 1.66667 µM)",81
3,"COc1cc(Nc2ncc(F)c(Nc3ccc4c(n3)NC(=O)C(C)(C)O4)n2)cc(OC)c1OC [Tamatinib] + Cn1cc(/C=C2\C(=O)Nc3cccnc32)c2ccccc21 [GW441756] (first compound 0.4 µM, partner dose 0.4 µM)",92.7
4,"NC(=O)Nc1cc(-c2cccc(F)c2)sc1C(=O)N[C@H]1CCCNC1 + NCC(=O)Nc1ccc(-n2nc(C(F)(F)F)cc2-c2ccc3c(ccc4ccccc43)c2)cc1 [OSU03012] (first compound 0.02 µM, partner dose 1 µM)",120
5,"Nc1cccc2c1CN(C1CCC(=O)NC1=O)C2=O (stereo not given) [lenalidomide] + O=C(Nc1ccccc1)c1cc([N+](=O)[O-])ccc1Cl [GW9662] (first compound 1 µM, partner dose 2 µM)",118
6,"Cn1cncc1[C@@](N)(c1ccc(Cl)cc1)c1ccc2c(c1)c(-c1cccc(Cl)c1)cc(=O)n2C [tipifarnib] + COc1cc(N2CCC(N3CCN(C)CC3)CC2)ccc1Nc1ncc(Cl)c(Nc2ccccc2S(=O)(=O)C(C)C)n1 [NVP-TAE684] (first compound 0.01 µM, partner dose 0.08 µM)",160
7,"Nc1cccc2c1CN(C1CCC(=O)NC1=O)C2=O (stereo not given) [lenalidomide] + CN(C)S(=O)(=O)c1ccc2c(c1)/C(=C/c1cc3c([nH]1)CCCC3)C(=O)N2 [SU6656] (first compound 1 µM, partner dose 0.4 µM)",97.9
8,"C[C@]1(c2nc3c(C(N)=O)cccc3[nH]2)CCCN1 [Veliparib] + Cc1ccc(NC(=O)c2cccc(N(C)C)c2)cc1NC(=O)c1ccc(O)cc1 [ZM336372] (first compound 1.4 µM, partner dose 2 µM)",126
9,"C=CCn1c(=O)c2cnc(Nc3ccc(N4CCN(C)CC4)cc3)nc2n1-c1cccc(C(C)(C)O)n1 + NC(=O)Nc1cc(-c2cccc(F)c2)sc1C(=O)N[C@H]1CCCNC1 [AZD7762] (first compound 0.02 µM, partner dose 0.02 µM)",355
10,"COCC[n+]1c2c(n(Cc3cnccn3)c1C)C(=O)c1ccccc1C2=O + COc1cc(N2CCC(N3CCN(C)CC3)CC2)ccc1Nc1ncc(Cl)c(Nc2ccccc2S(=O)(=O)C(C)C)n1 [NVP-TAE684] (first compound 0.0004 µM, partner dose 0.08 µM)",83.1
11,"Cn1nnc2c(C(N)=O)ncn2c1=O [temozolomide] + COc1cc2ncnc(Nc3ccc(Oc4ccccc4)cc3)c2cc1OC [SrcI1] (first compound 2 µM, partner dose 2 µM)",81.8
12,"CC(C)(C)c1cnc(CSc2cnc(NC(=O)C3CCNCC3)s2)o1 + COC(=O)c1sccc1S(=O)(=O)Nc1ccc(Nc2ccccc2)cc1OC [GSK0660] (first compound 0.01 µM, partner dose 1 µM)",85.6
13,"CC(=O)c1c(C)c2cnc(Nc3ccc(N4CCNCC4)cn3)nc2n(C2CCCC2)c1=O [palbociclib] + Clc1ccc(Nc2nnc(Cc3ccncc3)c3ccccc23)cc1 [vatalanib] (first compound 0.04 µM, partner dose 2 µM)",316
14,"Cc1ccc(NC(=O)c2cccc(N(C)C)c2)cc1NC(=O)c1ccc(O)cc1 + Cc1cc(N2CCOCC2)cc2[nH]c(-c3c(NC[C@@H](O)c4cccc(Cl)c4)cc[nH]c3=O)nc12 [BMS536924] (first compound 2 µM, partner dose 0.2 µM)",123
15,"O=C(CCCCCCC(=O)Nc1ccccc1)NO [vorinostat] + CC1(C)NC(=O)N(c2ccc([N+](=O)[O-])c(C(F)(F)F)c2)C1=O [nilutamide] (first compound 0.08 µM, partner dose 1 µM)",76.7

# Rewritten with tabs: part of the list above
row	SMILES	cleaved PARP positive nuclei fraction [%]
7	Nc1cccc2c1CN(C1CCC(=O)NC1=O)C2=O (stereo not given) [lenalidomide] + CN(C)S(=O)(=O)c1ccc2c(c1)/C(=C/c1cc3c([nH]1)CCCC3)C(=O)N2 [SU6656] (first compound 1 µM, partner dose 0.4 µM)	97.9
8	C[C@]1(c2nc3c(C(N)=O)cccc3[nH]2)CCCN1 [Veliparib] + Cc1ccc(NC(=O)c2cccc(N(C)C)c2)cc1NC(=O)c1ccc(O)cc1 [ZM336372] (first compound 1.4 µM, partner dose 2 µM)	126
